{"source": "patent US12497597B2", "about": "“Methods of generating and expanding hematopoietic stem cells” (CHILDREN'S HOSPITAL MEDICAL CENTER, priority 2019, dated 2025)", "tested_on": "UCB cells", "assay": "Colony forming ability of UCB cells mixed with organoid cultures under hepatic differentiation", "format": "cell-based, human", "conditions": "RA followed by HCM, optionally with 0.1 μM dexamethasone, Oncostatin M and HGF; UCB cells co-cultured with organoids; FIG. 12F-G", "note": "For at least one compound, name, drawing or mass did not settle the structure."}
{"smiles": "CC1=C(/C=C/C(C)=C/C=C/C(C)=C/C(=O)O)C(C)(C)CCC1", "note": "[retinoic acid]", "values": [{"measurement": "hematopoietic colony forming ability", "result": "steady decline of hematopoietic colony forming ability"}]}
